Data as given in PubChem BioAssay AID1508587 (Peter MacCallum Cancer Centre, 2020)
Aim: 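Knockdowns that add to vemurafenib's cut in melanoma glycolysis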 (follow-up of hits). Cell system: human WM266.4 melanoma cells with a BRAF V600 mutation. Reagents: single siRNA against human genes, 25 nM. Time to read-out: 96 h. Conditions: vemurafenib 300 nM (about IC25), given 48 h after transfection for 48 h. Read-out: 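Medium lactate read by absorbance over DAPI-counted nuclei; ratio with versus without vemurafenib, set against non-targeting siRNA, averaged over 2 replicates; cell number also recorded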. Scale: lactate per cell, drug vs no drug: higher = less drug-induced drop in lactate per cell; lactate per cell with vemurafenib: higher = more lactate per cell under drug; lactate per cell without drug: higher = more lactate per cell without drug; cell growth with vemurafenib: higher = more cell growth over 48 h. Active means: 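Enhancer call for any duplex whose drug versus no-drug per-cell lactate ratio is below 0.55 (2 SD beneath non-targeting average); genes confirmed when at least 2 of their 4 duplexes qualify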.
The whole screen tested about 1,600 reagents; below is an unselected part. In the full data, 623 (39%) were called active. 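Calls are for each duplex; lactate ratios contain extreme outliers.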 Further read-outs or replicates are left out here.

| gene knocked down | PubChem SID | lactate per cell, drug vs no drug | lactate per cell with vemurafenib | lactate per cell without drug | cell growth with vemurafenib | Call |
| --- | --- | --- | --- | --- | --- | --- |
| SELENBP1 (selenium binding protein 1) | SID134260497 | 0.62 | 3.02 | 3.34 | 0.19 | inactive |
| SELENBP1 (selenium binding protein 1) | SID134260498 | 0.66 | 1.69 | 1.72 | 0.13 | inactive |
| SELENBP1 (selenium binding protein 1) | SID134260499 | -0.74 | -0.26 | 0.24 | 0.31 | active |
| SELENBP1 (selenium binding protein 1) | SID152149343 | 0.6 | 1.23 | 1.38 | 0.86 | inactive |
| TCP11 (t-complex 11) | SID134277229 | 0.62 | 0.86 | 0.94 | 0.18 | inactive |
| TCP11 (t-complex 11) | SID134277230 | 0.56 | 1.15 | 1.34 | -0.03 | inactive |
| TCP11 (t-complex 11) | SID134277231 | 0.6 | 1.55 | 1.7 | 0.03 | inactive |
| TCP11 (t-complex 11) | SID134277232 | 0.66 | 0.97 | 1.04 | -0.18 | inactive |
| CCL18 (C-C motif chemokine ligand 18) | SID134240801 | 0.5 | 0.76 | 0.92 | 0.94 | active |
| CCL18 (C-C motif chemokine ligand 18) | SID134240802 | 0.48 | 0.62 | 0.8 | 0.49 | active |
| CCL18 (C-C motif chemokine ligand 18) | SID134240803 | 0.56 | 1.29 | 1.52 | 0.63 | inactive |
| CCL18 (C-C motif chemokine ligand 18) | SID134240804 | 0.6 | 3.95 | 4.14 | -0.1 | inactive |
| LEAP2 (liver enriched antimicrobial peptide 2) | SID134266641 | 0.82 | 5.56 | 4.25 | -0.11 | inactive |
| LEAP2 (liver enriched antimicrobial peptide 2) | SID134266642 | 0.59 | 1.02 | 1.08 | 0.88 | inactive |
| LEAP2 (liver enriched antimicrobial peptide 2) | SID134266643 | 0.6 | 1.69 | 1.79 | 0.3 | inactive |
| LEAP2 (liver enriched antimicrobial peptide 2) | SID134266644 | 0.7 | 0.94 | 0.85 | 1.08 | inactive |
| UNC45B (unc-45 myosin chaperone B) | SID134276853 | 0.58 | 0.91 | 0.98 | 1.34 | inactive |
| UNC45B (unc-45 myosin chaperone B) | SID134276854 | 0.5 | 1.81 | 2.19 | 0.13 | active |
| UNC45B (unc-45 myosin chaperone B) | SID134276855 | 0.62 | 2.52 | 2.6 | 0.09 | inactive |
| UNC45B (unc-45 myosin chaperone B) | SID134276856 | 0.41 | 1.57 | 2.42 | 0.17 | active |

2 entries already listed, arranged by “cell growth with vemurafenib”, lowest first:
| gene knocked down | PubChem SID | lactate per cell, drug vs no drug | lactate per cell with vemurafenib | lactate per cell without drug | cell growth with vemurafenib | Call |
| --- | --- | --- | --- | --- | --- | --- |
| UNC45B (unc-45 myosin chaperone B) | SID134276854 | 0.5 | 1.81 | 2.19 | 0.13 | active |
| UNC45B (unc-45 myosin chaperone B) | SID134276853 | 0.58 | 0.91 | 0.98 | 1.34 | inactive |
